Like-named read-outs stand apart in the source and are kept apart here. These are yes or no findings as the source states them, for the method shown. Binding seen in cells or lysates may run through a third protein. Here binding means that the protein was enriched with, or labelled near, the bait; the list need not be complete.
Tests used:
[1] = target: ND1 subunit of RCI (NADH dehydrogenase) (human (endogenous in HeLa)) (UniProt P03886); assay: affinity purification with mass spectrometry
[2] = target: ND1 subunit of RCI (NADH dehydrogenase) (human (endogenous in HeLa)) (UniProt P03886); assay: affinity purification with mass spectrometry; remark: listed apart in the source

Amino acid sequences for entries named in this document (tags omitted). Residues count along the entry.
UniProt P03886: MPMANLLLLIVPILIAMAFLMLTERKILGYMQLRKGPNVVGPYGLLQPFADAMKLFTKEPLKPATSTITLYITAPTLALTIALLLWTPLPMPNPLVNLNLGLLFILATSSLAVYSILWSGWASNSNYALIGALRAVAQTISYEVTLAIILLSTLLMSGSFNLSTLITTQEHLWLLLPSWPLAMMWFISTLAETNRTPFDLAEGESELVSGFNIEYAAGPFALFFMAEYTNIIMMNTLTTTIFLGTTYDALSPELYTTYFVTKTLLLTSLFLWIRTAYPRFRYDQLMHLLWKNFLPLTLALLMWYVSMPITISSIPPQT
UniProt Q9HD34: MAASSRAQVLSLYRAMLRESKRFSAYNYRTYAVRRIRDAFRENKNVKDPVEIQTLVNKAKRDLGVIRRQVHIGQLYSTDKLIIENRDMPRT
UniProt P56556: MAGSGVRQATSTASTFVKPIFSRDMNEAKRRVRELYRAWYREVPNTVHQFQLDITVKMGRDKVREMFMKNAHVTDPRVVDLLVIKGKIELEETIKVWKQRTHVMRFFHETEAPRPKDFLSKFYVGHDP
UniProt O95299, residues 36-355: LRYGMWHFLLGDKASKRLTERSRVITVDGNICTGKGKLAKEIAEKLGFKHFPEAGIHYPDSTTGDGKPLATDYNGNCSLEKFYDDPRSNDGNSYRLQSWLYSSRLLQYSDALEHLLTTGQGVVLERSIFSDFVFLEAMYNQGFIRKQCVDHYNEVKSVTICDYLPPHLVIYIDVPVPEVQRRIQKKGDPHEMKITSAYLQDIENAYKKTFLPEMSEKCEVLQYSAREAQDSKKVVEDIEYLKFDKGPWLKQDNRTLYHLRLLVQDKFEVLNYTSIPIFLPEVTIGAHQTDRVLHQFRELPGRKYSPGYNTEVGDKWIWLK
UniProt Q9UI09: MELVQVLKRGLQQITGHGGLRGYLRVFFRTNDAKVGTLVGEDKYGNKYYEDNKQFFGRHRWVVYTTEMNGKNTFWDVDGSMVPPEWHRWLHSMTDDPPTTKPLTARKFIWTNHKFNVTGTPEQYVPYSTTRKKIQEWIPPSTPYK
UniProt O43676: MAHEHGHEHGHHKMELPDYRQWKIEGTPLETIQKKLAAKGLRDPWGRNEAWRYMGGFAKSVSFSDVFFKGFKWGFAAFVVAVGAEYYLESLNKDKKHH
UniProt P17568: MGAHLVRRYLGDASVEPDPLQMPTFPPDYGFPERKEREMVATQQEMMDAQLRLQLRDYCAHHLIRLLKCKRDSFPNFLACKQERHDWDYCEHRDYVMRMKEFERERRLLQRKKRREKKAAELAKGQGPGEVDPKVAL
UniProt P47985: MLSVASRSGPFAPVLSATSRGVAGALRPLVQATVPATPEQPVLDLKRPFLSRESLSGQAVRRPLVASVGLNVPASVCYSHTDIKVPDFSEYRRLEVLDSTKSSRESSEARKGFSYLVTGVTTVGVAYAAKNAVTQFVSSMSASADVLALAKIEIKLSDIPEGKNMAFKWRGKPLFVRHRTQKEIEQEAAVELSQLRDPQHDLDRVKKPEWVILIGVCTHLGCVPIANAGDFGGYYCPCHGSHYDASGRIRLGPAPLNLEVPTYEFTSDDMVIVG
UniProt O95182: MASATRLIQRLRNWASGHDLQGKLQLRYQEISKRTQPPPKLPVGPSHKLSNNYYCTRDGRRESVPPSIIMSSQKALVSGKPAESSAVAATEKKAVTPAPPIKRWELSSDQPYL
UniProt O95178, residues 34-105: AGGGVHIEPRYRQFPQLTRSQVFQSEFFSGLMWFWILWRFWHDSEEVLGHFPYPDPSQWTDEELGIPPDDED
UniProt O95169, residues 29-186: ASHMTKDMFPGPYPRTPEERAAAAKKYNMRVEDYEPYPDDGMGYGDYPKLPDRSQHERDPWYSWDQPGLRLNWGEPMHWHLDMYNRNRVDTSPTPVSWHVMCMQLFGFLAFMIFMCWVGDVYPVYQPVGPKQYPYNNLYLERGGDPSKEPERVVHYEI
UniProt Q9Y6M9: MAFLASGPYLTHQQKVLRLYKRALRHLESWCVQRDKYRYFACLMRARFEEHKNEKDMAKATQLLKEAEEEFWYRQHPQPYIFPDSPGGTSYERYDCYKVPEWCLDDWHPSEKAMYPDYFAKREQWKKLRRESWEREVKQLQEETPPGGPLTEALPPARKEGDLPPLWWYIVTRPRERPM
UniProt O43181, residues 43-175: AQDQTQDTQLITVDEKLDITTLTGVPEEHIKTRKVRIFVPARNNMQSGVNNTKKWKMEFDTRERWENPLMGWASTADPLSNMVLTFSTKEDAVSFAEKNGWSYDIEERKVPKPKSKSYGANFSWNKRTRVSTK
UniProt O75380, residues 29-124: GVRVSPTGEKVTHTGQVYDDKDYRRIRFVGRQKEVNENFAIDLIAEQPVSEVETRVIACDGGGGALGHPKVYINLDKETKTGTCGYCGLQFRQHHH

Row | Molecule | binding [1] | binding [2]
1 | LYRM4 (ISD11) (from UniProt Q9HD34 1-91) | binds | –
2 | NDUFA6 (from UniProt P56556 1-128) | binds | –
3 | NDUFA10 (from UniProt O95299 36-355) | binds | –
4 | NDUFA12 (from UniProt Q9UI09 1-145) | binds | –
5 | NDUFB3 (from UniProt O43676 1-98) | binds | –
6 | NDUFB7 (from UniProt P17568 1-137) | binds | –
7 | UQCRFS1, the Rieske FeS protein from RCIII (from UniProt P47985 1-274) | binds | –

Next, values leading:

Row | binding [1] | binding [2] | Molecule
8 | binds | – | NDUFA7 (from UniProt O95182 1-113)
9 | binds | – | NDUFB2 (from UniProt O95178 34-105)
10 | binds | – | NDUFB8 (from UniProt O95169 29-186)
11 | binds | – | NDUFB9 (from UniProt Q9Y6M9 1-179)
12 | binds | – | NDUFS4 (from UniProt O43181 43-175)
13 | binds | – | NDUFS6 (from UniProt O75380 29-124)
14 | – | binds | LYRM2 (protein, UniProt Q9NU23 20-88) QQVLLLYRRILQTIRQVPNDSDRKYLKDWAREEFRRNKSATEEDTIRMMITQGNMQLKELEKTLALAKS
15 | – | binds | LYRM7 (protein, UniProt Q5U5X0 1-104) MGRAVKVLQLFKTLHRTRQQVFKNDARALEAARIKINEEFKNNKSETSSKKIEELMKIGSDVELLLRTSVIQGIHTDHNTLKLVPRKDLLVENVPYCDAPTQKQ
16 | – | binds | LYRM1 (protein, UniProt O43325 1-122) MTTATRQEVLGLYRSIFRLARKWQATSGQMEDTIKEKQYILNEARTLFRKNKNLTDTDLIKQCIDECTARIEIGLHYKIPYPRPIHLPPMGLTPLRGRGLRSQEKLRKLSKPVYLRSHDEVS

Reference: publication doi:10.1101/832287
